Whole data set: some 1,600 compounds, median “Hit score” near 0.13, cut for the highest 2% near 0.46. Some of the results follow.

The assay concerns SARS-CoV-2. The experiment in a line: Antiviral activity against SARS-CoV-2 (USA-WA1/2020 strain) measured by imaging in HRCE cells at MOI 0.4 after 96 hrs (reported as hit score from 0-1 for on-disease vs off-disease activity: scores >0.6 considered hits). It is filed as functional, Homo sapiens.
For the compound `Nc1cccc2c(=O)[nH][nH]c(=O)c12.[Na+]`, the Hit score was 0.2367.

Consider `COc1ccc(-c2cc(=O)c3c(O)cc(O[C@@H]4O[C@H](CO[C@@H]5O[C@@H](C)[C@H](O)[C@@H](O)[C@H]5O)[C@@H](O)[C@H](O)[C@H]4O)cc3o2)cc1O` [DIOSMIN], for which the Hit score stood at 0.0775.

For `CN1CC2c3ccccc3Oc3ccc(Cl)cc3C2C1` (stereo not given) [ASENAPINE], the Hit score stood at 0.0724.

With `NC(=O)NC(=O)Cc1ccccc1` [PHENACEMIDE], the Hit score was 0.1369.

As for `CC1CS(=O)(=O)CCN1/N=C/c1ccc([N+](=O)[O-])o1` (stereo not given) [NIFURTIMOX], the Hit score is recorded as 0.1929.

The compound `c1ccc2[nH]c(-c3cscn3)nc2c1` [THIABENDAZOLE] came in with a Hit score of 0.1704.

Compound `O=C1OC2(c3ccc(O)cc3Oc3cc(O)ccc32)c2ccccc21` [FLUORESCEIN] had a Hit score of 0.1428.

Turning to `CCCCCCCCc1ccc(CCC(N)(CO)CO)cc1` [FINGOLIMOD], the Hit score is reported as -0.1599.

`COc1cc(C(=O)NC2CCCNC2)cc(OC)c1OC` (stereo not given) [TROXIPIDE] registered a Hit score of 0.08235.

As to `O=C(O)[C@@H]1CCCN1` [PROLINE], the Hit score is reported as 0.14.

For the compound `CO[C@H]1C(=O)[C@]2(C)[C@@H](OC)C[C@H]3OC[C@@]3(OC(C)=O)[C@H]2[C@H](OC(=O)c2ccccc2)[C@]2(O)C[C@H](OC(=O)[C@H](O)[C@@H](NC(=O)OC(C)(C)C)c3ccccc3)C(C)=C1C2(C)C` [CABAZITAXEL], the Hit score is -0.8282.

`O=C(O)CCn1c2c(c3ccccc31)C[C@H](NS(=O)(=O)c1ccc(F)cc1)CC2` [RAMATROBAN] registered a Hit score of 0.05053.

On to `CC1(C)NC(=O)N(c2ccc([N+](=O)[O-])c(C(F)(F)F)c2)C1=O` [NILUTAMIDE], for which the Hit score is 0.005506.

As to `CCCCCCc1ccc(O)cc1O` [HEXYLRESORCINOL], the Hit score is listed as 0.2337.

Regarding `O=C(/C=C\n1cnc(-c2cc(C(F)(F)F)cc(C(F)(F)F)c2)n1)NNc1cnccn1` [SELINEXOR], the Hit score is reported as 0.1809.

Take `CCCCc1nc(C)c(CC(=S)N(C)C)c(=O)n1Cc1ccc(-c2ccccc2-c2nnn[nH]2)cc1`: the Hit score was determined as 0.1262.

In the case of `Cc1nc(NC(=O)N2CCC[C@H]2C(N)=O)sc1-c1ccnc(C(C)(C)C(F)(F)F)c1` [ALPELISIB], the Hit score is reported as 0.6194.

`CC(C)NCC(O)COc1cccc2ccccc12` (stereo not given) [PROPRANOLOL] yielded a Hit score of 0.3664.

In turn, `Nc1ncnc2c1ncn2CCOCP(=O)(O)O` [ADEFOVIR] gave a Hit score of 0.2505.

The compound `CCC1=C(C)CN(C(=O)NCCc2ccc(S(=O)(=O)NC(=O)N[C@H]3CC[C@H](C)CC3)cc2)C1=O` [GLIMEPIRIDE] showed a Hit score of 0.2439.

Source of the values: ChEMBL document CHEMBL4303122, “Identification of potential treatments for COVID-19 through artificial intelligence-enabled phenomic analysis of human cells infected with SARS-CoV-2” (2020).
